# For some assays here: Most of the strong results are listed elsewhere, so they are rarer here than in the full data. The list shows a part of the results, in another mix than the full data.
# Protein sequences, listed by entry. Tags and fused reporters are not part of them. Lines headed by an entry give the natural chain unless they say otherwise; changes in a name come on top.
# UniProt Q9HBH9: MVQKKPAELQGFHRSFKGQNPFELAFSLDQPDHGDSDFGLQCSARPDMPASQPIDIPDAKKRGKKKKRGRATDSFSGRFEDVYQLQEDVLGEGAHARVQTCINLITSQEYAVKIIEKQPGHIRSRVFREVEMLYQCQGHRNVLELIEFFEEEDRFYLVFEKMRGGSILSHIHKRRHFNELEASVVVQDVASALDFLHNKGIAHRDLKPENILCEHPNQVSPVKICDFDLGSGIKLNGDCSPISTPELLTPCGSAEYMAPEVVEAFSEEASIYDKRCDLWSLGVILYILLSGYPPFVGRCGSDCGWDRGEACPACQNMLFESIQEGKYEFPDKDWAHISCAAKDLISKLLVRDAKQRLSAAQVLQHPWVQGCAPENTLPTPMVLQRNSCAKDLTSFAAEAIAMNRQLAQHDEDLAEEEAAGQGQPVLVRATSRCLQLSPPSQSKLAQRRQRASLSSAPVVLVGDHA
# UniProt O15146: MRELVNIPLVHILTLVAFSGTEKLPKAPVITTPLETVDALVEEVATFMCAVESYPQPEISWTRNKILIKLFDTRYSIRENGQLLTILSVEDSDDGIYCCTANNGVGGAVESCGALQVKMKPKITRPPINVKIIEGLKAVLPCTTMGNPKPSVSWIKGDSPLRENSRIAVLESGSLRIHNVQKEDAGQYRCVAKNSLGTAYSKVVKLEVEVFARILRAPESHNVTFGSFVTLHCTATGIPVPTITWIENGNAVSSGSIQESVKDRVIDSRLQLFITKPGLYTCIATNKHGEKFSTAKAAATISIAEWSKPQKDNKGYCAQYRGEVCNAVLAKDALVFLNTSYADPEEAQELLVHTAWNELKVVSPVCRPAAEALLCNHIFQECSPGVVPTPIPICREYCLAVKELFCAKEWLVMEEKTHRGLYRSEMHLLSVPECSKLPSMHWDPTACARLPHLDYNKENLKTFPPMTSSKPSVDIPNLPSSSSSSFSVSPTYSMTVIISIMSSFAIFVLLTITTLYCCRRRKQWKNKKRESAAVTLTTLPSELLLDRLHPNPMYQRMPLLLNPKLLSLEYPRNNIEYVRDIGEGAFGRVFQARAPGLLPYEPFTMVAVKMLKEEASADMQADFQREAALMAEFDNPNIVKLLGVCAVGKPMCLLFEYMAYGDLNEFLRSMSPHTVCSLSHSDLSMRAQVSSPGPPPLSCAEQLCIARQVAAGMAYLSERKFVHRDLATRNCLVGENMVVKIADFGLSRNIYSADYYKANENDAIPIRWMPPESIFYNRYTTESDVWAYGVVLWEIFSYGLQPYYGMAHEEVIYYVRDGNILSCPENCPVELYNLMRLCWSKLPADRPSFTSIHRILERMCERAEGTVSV
# UniProt Q8NG66: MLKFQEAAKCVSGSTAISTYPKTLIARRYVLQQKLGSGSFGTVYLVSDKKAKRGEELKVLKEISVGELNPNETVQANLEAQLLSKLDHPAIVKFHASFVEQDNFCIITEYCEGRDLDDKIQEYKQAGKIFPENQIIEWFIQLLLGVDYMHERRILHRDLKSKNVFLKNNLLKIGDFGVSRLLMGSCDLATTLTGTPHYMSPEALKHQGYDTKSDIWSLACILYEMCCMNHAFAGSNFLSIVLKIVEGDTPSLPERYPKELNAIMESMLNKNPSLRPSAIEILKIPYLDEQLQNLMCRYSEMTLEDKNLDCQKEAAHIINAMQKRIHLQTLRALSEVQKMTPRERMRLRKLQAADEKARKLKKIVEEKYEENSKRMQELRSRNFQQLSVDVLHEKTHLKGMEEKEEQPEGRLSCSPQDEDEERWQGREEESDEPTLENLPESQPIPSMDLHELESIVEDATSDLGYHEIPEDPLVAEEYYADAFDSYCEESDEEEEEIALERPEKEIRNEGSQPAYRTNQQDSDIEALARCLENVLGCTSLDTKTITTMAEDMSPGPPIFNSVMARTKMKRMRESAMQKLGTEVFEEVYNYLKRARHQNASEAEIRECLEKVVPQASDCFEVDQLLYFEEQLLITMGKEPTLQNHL
# UniProt P51955: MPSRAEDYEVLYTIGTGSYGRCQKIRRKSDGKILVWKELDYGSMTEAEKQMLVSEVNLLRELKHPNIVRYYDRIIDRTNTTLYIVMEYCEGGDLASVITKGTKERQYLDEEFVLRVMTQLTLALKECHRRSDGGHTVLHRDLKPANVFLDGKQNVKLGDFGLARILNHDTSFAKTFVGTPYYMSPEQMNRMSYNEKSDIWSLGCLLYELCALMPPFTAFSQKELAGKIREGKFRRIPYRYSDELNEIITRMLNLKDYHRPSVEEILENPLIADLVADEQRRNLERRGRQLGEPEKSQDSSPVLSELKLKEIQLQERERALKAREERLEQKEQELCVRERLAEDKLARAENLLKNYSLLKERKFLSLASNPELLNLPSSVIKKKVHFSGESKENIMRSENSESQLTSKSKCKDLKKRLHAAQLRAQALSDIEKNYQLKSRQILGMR
# UniProt P51956: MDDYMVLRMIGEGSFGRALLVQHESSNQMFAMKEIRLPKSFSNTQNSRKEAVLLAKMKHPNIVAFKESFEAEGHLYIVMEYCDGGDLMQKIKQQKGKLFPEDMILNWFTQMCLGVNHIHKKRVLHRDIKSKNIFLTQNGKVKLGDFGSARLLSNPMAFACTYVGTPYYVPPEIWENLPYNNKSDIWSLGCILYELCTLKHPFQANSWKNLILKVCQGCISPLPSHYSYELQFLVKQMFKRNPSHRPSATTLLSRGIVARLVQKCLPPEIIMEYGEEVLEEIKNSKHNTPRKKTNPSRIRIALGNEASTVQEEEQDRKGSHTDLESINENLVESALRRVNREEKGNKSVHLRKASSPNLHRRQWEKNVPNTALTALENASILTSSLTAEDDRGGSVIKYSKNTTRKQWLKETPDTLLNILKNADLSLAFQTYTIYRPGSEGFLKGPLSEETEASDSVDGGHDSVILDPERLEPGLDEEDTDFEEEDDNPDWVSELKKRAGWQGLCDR
# UniProt P04629: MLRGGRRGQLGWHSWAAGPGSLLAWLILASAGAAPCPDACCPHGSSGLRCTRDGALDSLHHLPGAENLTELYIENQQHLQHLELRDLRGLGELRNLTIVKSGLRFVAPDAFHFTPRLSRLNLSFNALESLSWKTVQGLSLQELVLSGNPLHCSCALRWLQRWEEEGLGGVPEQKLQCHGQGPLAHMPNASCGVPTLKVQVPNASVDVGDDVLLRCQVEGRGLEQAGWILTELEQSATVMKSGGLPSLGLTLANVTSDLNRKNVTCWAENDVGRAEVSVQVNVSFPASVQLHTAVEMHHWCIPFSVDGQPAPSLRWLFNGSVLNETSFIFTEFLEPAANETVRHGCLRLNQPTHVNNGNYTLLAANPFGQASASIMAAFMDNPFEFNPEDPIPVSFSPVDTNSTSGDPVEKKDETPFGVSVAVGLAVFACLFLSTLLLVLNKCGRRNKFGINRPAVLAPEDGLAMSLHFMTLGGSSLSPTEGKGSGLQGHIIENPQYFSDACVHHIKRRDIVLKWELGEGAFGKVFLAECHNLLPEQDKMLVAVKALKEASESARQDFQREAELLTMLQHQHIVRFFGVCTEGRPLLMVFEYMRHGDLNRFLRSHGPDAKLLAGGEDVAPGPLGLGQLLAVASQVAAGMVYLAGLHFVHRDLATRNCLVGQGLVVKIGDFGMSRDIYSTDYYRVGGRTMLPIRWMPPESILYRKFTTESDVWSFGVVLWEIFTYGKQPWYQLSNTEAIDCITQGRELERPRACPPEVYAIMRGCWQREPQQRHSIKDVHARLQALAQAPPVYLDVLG
# UniProt P42681: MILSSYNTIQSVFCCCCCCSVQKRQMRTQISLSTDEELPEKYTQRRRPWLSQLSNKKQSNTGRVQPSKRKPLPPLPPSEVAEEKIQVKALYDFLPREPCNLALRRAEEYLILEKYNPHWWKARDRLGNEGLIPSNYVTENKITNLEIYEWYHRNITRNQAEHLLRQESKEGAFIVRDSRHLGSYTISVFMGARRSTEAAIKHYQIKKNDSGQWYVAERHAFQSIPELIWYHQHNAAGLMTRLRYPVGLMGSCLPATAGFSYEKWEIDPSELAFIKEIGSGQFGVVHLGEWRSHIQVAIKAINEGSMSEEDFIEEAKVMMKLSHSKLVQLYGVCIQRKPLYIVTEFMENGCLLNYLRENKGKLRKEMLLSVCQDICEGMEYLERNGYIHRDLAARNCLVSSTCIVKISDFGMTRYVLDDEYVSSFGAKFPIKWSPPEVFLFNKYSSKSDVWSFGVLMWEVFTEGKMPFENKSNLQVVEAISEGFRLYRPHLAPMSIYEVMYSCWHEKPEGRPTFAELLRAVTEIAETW
# UniProt P07947, whole entry, looked up: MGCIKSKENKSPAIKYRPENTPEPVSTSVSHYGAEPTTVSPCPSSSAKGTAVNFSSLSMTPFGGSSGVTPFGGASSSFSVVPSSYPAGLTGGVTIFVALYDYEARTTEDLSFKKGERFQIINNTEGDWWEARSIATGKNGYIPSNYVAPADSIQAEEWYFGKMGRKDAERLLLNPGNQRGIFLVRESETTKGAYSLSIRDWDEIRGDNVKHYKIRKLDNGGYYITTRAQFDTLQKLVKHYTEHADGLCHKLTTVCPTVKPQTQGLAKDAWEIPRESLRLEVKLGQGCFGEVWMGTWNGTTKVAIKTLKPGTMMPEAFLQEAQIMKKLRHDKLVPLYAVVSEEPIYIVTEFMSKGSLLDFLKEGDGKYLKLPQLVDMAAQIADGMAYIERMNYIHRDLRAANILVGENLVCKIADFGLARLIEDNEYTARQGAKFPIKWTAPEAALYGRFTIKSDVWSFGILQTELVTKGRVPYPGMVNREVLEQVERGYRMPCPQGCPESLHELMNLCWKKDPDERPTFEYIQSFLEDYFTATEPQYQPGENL
# UniProt P43403: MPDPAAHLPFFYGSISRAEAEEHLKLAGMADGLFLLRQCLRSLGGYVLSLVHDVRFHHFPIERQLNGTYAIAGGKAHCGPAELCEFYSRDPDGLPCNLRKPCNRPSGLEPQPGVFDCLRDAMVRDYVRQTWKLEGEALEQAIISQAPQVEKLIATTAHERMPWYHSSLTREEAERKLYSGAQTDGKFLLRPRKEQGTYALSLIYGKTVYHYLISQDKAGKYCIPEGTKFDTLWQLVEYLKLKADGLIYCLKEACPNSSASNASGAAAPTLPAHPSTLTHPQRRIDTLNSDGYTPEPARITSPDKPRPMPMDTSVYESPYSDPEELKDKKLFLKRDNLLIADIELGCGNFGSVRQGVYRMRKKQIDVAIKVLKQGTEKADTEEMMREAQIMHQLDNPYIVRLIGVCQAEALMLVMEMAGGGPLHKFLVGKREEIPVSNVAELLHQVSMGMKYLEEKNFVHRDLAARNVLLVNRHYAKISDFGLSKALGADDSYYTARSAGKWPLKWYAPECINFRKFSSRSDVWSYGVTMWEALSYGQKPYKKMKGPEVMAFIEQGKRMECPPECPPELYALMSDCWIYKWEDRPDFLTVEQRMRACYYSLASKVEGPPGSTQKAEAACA
# UniProt O43293: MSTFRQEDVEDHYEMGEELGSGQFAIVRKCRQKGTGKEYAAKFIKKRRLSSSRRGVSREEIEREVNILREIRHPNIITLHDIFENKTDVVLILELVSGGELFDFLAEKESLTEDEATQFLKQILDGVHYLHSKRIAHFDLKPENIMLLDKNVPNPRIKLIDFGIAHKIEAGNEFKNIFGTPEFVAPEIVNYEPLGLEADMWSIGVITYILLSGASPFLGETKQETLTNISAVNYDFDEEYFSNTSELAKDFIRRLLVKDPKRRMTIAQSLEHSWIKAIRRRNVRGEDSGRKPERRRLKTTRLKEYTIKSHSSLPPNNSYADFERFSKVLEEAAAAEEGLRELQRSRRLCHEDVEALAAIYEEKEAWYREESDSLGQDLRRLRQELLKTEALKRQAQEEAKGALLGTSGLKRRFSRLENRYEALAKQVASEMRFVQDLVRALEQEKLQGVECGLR
# UniProt O00418: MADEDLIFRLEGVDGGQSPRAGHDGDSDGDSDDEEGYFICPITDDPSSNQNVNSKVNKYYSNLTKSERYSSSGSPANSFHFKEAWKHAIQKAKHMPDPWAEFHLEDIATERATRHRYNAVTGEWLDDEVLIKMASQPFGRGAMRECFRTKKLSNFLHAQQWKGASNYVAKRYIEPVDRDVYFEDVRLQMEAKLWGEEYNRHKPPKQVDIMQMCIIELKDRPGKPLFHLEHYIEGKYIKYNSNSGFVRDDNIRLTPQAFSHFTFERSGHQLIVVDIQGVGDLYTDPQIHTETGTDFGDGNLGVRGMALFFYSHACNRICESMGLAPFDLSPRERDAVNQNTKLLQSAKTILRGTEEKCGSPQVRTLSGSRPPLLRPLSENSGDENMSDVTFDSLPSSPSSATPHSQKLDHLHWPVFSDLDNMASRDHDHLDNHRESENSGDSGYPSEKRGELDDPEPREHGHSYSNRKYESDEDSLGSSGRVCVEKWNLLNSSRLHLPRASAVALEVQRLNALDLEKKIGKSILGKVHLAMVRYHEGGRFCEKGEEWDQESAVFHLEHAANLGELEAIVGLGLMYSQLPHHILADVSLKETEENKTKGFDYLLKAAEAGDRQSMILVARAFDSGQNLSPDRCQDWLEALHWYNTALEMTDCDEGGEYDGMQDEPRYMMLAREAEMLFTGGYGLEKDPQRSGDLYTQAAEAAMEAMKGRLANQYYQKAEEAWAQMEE
# Columns and labels:
# [1] = target: Tyrosine-protein kinase Mer (Homo sapiens) (UniProt Q12866); conditions: at 1 µM
# [2] = target: Tyrosine-protein kinase Mer (Homo sapiens) (UniProt Q12866); conditions: at 10 µM
# [3] = target: Hepatocyte growth factor receptor (Homo sapiens) (UniProt P08581); conditions: at 1 µM
# [4] = target: Hepatocyte growth factor receptor (Homo sapiens) (UniProt P08581); conditions: at 10 µM
# [5] = target: MAP kinase-interacting serine/threonine-protein kinase 2 (Homo sapiens) (UniProt Q9HBH9); conditions: at 1 µM
# [6] = target: MAP kinase-interacting serine/threonine-protein kinase 2 (Homo sapiens) (UniProt Q9HBH9); conditions: at 10 µM
# [7] = target: Muscle, skeletal receptor tyrosine-protein kinase (Homo sapiens) (UniProt O15146); conditions: at 1 µM
# [8] = target: Muscle, skeletal receptor tyrosine-protein kinase (Homo sapiens) (UniProt O15146); conditions: at 10 µM
# [9] = target: Serine/threonine-protein kinase Nek11 (Homo sapiens) (UniProt Q8NG66); conditions: at 1 µM
# [10] = target: Serine/threonine-protein kinase Nek11 (Homo sapiens) (UniProt Q8NG66); conditions: at 10 µM
# [11] = target: Serine/threonine-protein kinase Nek2 (Homo sapiens) (UniProt P51955); conditions: at 1 µM
# [12] = target: Serine/threonine-protein kinase Nek2 (Homo sapiens) (UniProt P51955); conditions: at 10 µM
# [13] = target: Serine/threonine-protein kinase Nek3 (Homo sapiens) (UniProt P51956); conditions: at 1 µM
# [14] = target: Serine/threonine-protein kinase Nek3 (Homo sapiens) (UniProt P51956); conditions: at 10 µM
# [15] = target: Serine/threonine-protein kinase tousled-like 2 (Homo sapiens) (UniProt Q86UE8); conditions: at 1 µM
# [16] = target: Serine/threonine-protein kinase tousled-like 2 (Homo sapiens) (UniProt Q86UE8); conditions: at 10 µM
# [17] = target: Testis-specific serine/threonine-protein kinase 1 (Homo sapiens) (UniProt Q9BXA7); conditions: at 1 µM
# [18] = target: Testis-specific serine/threonine-protein kinase 1 (Homo sapiens) (UniProt Q9BXA7); conditions: at 10 µM
# [19] = target: Testis-specific serine/threonine-protein kinase 2 (Homo sapiens) (UniProt Q96PF2); conditions: at 1 µM
# [20] = target: Testis-specific serine/threonine-protein kinase 2 (Homo sapiens) (UniProt Q96PF2); conditions: at 10 µM
# [21] = target: Tyrosine-protein kinase Tec (Homo sapiens) (UniProt P42680); conditions: at 1 µM
# [22] = target: Tyrosine-protein kinase Tec (Homo sapiens) (UniProt P42680); conditions: at 10 µM
# [23] = target: Angiopoietin-1 receptor (Homo sapiens) (UniProt Q02763); conditions: at 1 µM
# [24] = target: Angiopoietin-1 receptor (Homo sapiens) (UniProt Q02763); conditions: at 10 µM
# [25] = target: High affinity nerve growth factor receptor (Homo sapiens) (UniProt P04629); conditions: at 1 µM
# [26] = target: High affinity nerve growth factor receptor (Homo sapiens) (UniProt P04629); conditions: at 10 µM
# [27] = target: BDNF/NT-3 growth factors receptor (Homo sapiens) (UniProt Q16620); conditions: at 1 µM
# [28] = target: BDNF/NT-3 growth factors receptor (Homo sapiens) (UniProt Q16620); conditions: at 10 µM
# [29] = target: Tyrosine-protein kinase TXK (Homo sapiens) (UniProt P42681); conditions: at 1 µM
# [30] = target: Tyrosine-protein kinase TXK (Homo sapiens) (UniProt P42681); conditions: at 10 µM
# [31] = target: Serine/threonine-protein kinase ULK2 (Homo sapiens) (UniProt Q8IYT8); conditions: at 1 µM
# [32] = target: Serine/threonine-protein kinase ULK2 (Homo sapiens) (UniProt Q8IYT8); conditions: at 10 µM
# [33] = target: Serine/threonine-protein kinase ULK3 (Homo sapiens) (UniProt Q6PHR2); conditions: at 1 µM
# [34] = target: Serine/threonine-protein kinase ULK3 (Homo sapiens) (UniProt Q6PHR2); conditions: at 10 µM
# [35] = target: Serine/threonine-protein kinase VRK2 (Homo sapiens) (UniProt Q86Y07); conditions: at 1 µM
# [36] = target: Serine/threonine-protein kinase VRK2 (Homo sapiens) (UniProt Q86Y07); conditions: at 10 µM
# [37] = target: Serine/threonine-protein kinase WNK2 (Homo sapiens) (UniProt Q9Y3S1); conditions: at 1 µM
# [38] = target: Serine/threonine-protein kinase WNK2 (Homo sapiens) (UniProt Q9Y3S1); conditions: at 10 µM
# [39] = target: Serine/threonine-protein kinase WNK3 (Homo sapiens) (UniProt Q9BYP7); conditions: at 1 µM
# [40] = target: Serine/threonine-protein kinase WNK3 (Homo sapiens) (UniProt Q9BYP7); conditions: at 10 µM
# [41] = target: Tyrosine-protein kinase Yes (Homo sapiens) (UniProt P07947); conditions: at 1 µM
# [42] = target: Tyrosine-protein kinase Yes (Homo sapiens) (UniProt P07947); conditions: at 10 µM
# [43] = target: Tyrosine-protein kinase ZAP-70 (Homo sapiens) (UniProt P43403); conditions: at 1 µM
# [44] = target: Tyrosine-protein kinase ZAP-70 (Homo sapiens) (UniProt P43403); conditions: at 10 µM
# [45] = target: Death-associated protein kinase 3 (Homo sapiens) (UniProt O43293); conditions: at 1 µM
# [46] = target: Death-associated protein kinase 3 (Homo sapiens) (UniProt O43293); conditions: at 10 µM
# [47] = target: RAF proto-oncogene serine/threonine-protein kinase (Homo sapiens) (UniProt P04049); conditions: at 1 µM
# [48] = target: RAF proto-oncogene serine/threonine-protein kinase (Homo sapiens) (UniProt P04049); conditions: at 10 µM
# [49] = target: Mast/stem cell growth factor receptor Kit (Homo sapiens) (UniProt P10721); conditions: at 1 µM
# [50] = target: Mast/stem cell growth factor receptor Kit (Homo sapiens) (UniProt P10721); conditions: at 10 µM
# [51] = target: Proto-oncogene tyrosine-protein kinase Src (Homo sapiens) (UniProt P12931); conditions: at 1 µM
# [52] = target: Proto-oncogene tyrosine-protein kinase Src (Homo sapiens) (UniProt P12931); conditions: at 10 µM
# [53] = target: Eukaryotic elongation factor 2 kinase (Homo sapiens) (UniProt O00418); conditions: at 1 µM
# [54] = target: Eukaryotic elongation factor 2 kinase (Homo sapiens) (UniProt O00418); conditions: at 10 µM
# [55] = target: Serine/threonine-protein kinase mTOR (Homo sapiens) (UniProt P42345); conditions: at 1 µM
# [56] = target: Serine/threonine-protein kinase mTOR (Homo sapiens) (UniProt P42345); conditions: at 10 µM
smiles,measurement,setting,value
O=C1Nc2ccc(-c3cccnc3)cc2/C1=C\c1ccc[nH]1,residual activity,[1],8%
same,residual activity,[2],1%
same,residual activity,[3],62%
same,residual activity,[4],10%
same,residual activity,[5],47%
same,residual activity,[6],14%
same,residual activity,[7],25%
same,residual activity,[8],2%
same,residual activity,[9],40%
same,residual activity,[10],8%
same,residual activity,[11],65%
same,residual activity,[12],33%
same,residual activity,[13],98%
same,residual activity,[14],54%
same,residual activity,[15],38%
same,residual activity,[16],5%
same,residual activity,[17],21%
same,residual activity,[18],2%
same,residual activity,[19],88%
same,residual activity,[20],61%
same,residual activity,[21],103%
same,residual activity,[22],32%
same,residual activity,[23],34%
same,residual activity,[24],10%
same,residual activity,[25],1%
same,residual activity,[26],1%
same,residual activity,[27],6%
same,residual activity,[28],-12%
same,residual activity,[29],53%
same,residual activity,[30],12%
same,residual activity,[31],46%
same,residual activity,[32],8%
same,residual activity,[33],37%
same,residual activity,[34],7%
same,residual activity,[35],inactive: 88%
same,residual activity,[36],39%
same,residual activity,[37],inactive: 80%
same,residual activity,[38],55%
same,residual activity,[39],inactive: 99%
same,residual activity,[40],58%
same,residual activity,[41],14%
same,residual activity,[42],2%
same,residual activity,[43],98%
same,residual activity,[44],109%
same,residual activity,[45],91%
same,residual activity,[46],38%
same,residual activity,[47],69%
same,residual activity,[48],63%
same,residual activity,[49],104%
same,residual activity,[50],63%
same,residual activity,[51],68%
same,residual activity,[52],32%
same,residual activity,[53],inactive: 83%
same,residual activity,[54],112%
same,residual activity,[55],107%
same,residual activity,[56],100%

# — ChEMBL document CHEMBL2218924, “A broad activity screen in support of a chemogenomic map for kinase signalling research and drug discovery” (Biochem J, 2013)
